Values of other authors, collected in patent US9895357B2, “Compositions, methods and kits for reducing lipid levels” (NuSirt Sciences, Inc., priority 2013, dated 2018).
Some of these results come from one statement about several compounds together.

Conditions: oral dosing of about 50 mg; cited from earlier work

SMILES: NC(=O)c1ccc[n+]([C@@H]2O[C@H](CO)[C@@H](O)[C@H]2O)c1 [nicotinamide riboside]
- circulating level of nicotinic acid or nicotinamide riboside: 10 to 100 nM
